Consider 8 substances from US12668573B2 (Zhejiang Yangshengtang Institute of Natural Medication Co., …, priority 2018, dated 2026).

The data set in a line: general procedure: solution-phase peptide synthesis; HOBt, DIPEA. As to conditions: conjugation step.
Regarding Maa-C6-Val-Ala-PAB-MMAE, the conjugation yield came out at 57% yield.

Take Maa-C6-Val-Cit-PAB-MMAE: the conjugation yield was 57% yield.

For Mf-C3-Val-Ala-PAB-MMAE, the conjugation yield is given as 68% yield.

The substance Mf-C6-Val-Cit-PAB-MMAE displayed a conjugation yield of 56% yield.

Substance Mm-C3-Val-Ala-PAB-MMAE returned a conjugation yield of 69% yield.

The substance Mm-C6-PEG4-Val-Ala-PAB-MMAE came in with a conjugation yield of 63% yield.

For the substance Mm-C6-Val-Ala-PAB-MMAE, the conjugation yield is on record as 75% yield.

Mm-C6-Val-Cit-PAB-MMAE registered a conjugation yield of 68% yield.
